Experimental data published in patent publication US7968551B2, “Chromenoneindoles” (Merck Patent GmbH, priority 2003, dated 2011).
“Also recorded” adds a separate entry of the source. At least one structure is not confirmed: it was looked up by name or label, or the drawing left a doubt.

Test system: cortical serotonin level
Experiment: Microdialysis: effect on the cortical serotonin level in vivo
Settings: rats, 1 mg/kg i.p.
Source text: In order to determine the effect of the substances on the cortical serotonin level in rats in vivo, a microdialysis probe with a semipermeable membrane was implanted into the brain tissue and perfused with a solution matched to the composition of cerebrospinal fluid (see in this respect, for example, Di Chiara, Trends Pharmacol. Sci. 11, 117-121, 1990). The molecules of the extracellular space, such as, for example, also of the neurotransmitter serotonin, diffuse via this membrane into the interior of the probe in accordance with their concentration gradient. From there, they are transported with the perfusion stream to a collecting vessel. The serotonin concentration in the dialysate obtained in this way is subsequently determined by means of high-sensitivity analytical methods. The fractions obtained at regular intervals (of, for example, 15-20 minutes) thus reflect the concentration changes of the transmitter in question in the brain tissue over a period of several hours. The concentration of the serotonin in the dialysate is firstly measured without any influence. The substance to be tested is then applied, and the serotonin concentrations before and after administration of the substances are compared.

Compound: CC(=O)Nc1cc2cc(N3CCN(CCCCc4c[nH]c5ccc(C#N)cc45)CC3)ccc2oc1=O [EMD 391987, N-(6-{4-[4-(5-Cyano-1H-indol-3-yl)butyl]piperazin-1-yl}-2-oxo-2H-chromen-3-yl)methylamide]
- serotonin level in the brain (5-HT concentration in the dialysate), FIG. 1: significantly higher serotonin level in the brain than administration of the same concentration; also recorded: significantly higher serotonin level in the brain compared with this compound
